Data source: PubChem BioAssay AID1159578 (Peter MacCallum Cancer Centre, 2015)

Assay: 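siRNA pools altering how lymphatic endothelial cells close a scratch wound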 (primary screen)
Cells: human lymphatic endothelial cells
Knock-down reagent: siRNA pool against human genes, 40 nM
Timing: 48 h after transfection
Measurement: 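High-content imaging of dye-stained cells in a scratch assay measures filled wound area and nuclei per well; duplicate means given as ratio to mock and robust z-score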
Direction: migration robust z-score: higher = faster migration into the scratch; migration relative to mock: higher = more scratch area covered than mock; nuclei per well: higher = more cells in the well
Rule for the call: 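Migration changed when robust z exceeds 2 or falls below -2 and mean nuclei number is at least 3300; otherwise not called changed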
Meaning of the calls: active = migration changed; inactive = no migration change, or too few cells
Shown is one part, drawn at random, of about 18,000 deposited reagents. Over the whole deposit, about 1,030 (5.7%) are marked active. 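Inactive calls also include pools with fewer than 3300 nuclei, whose migration was not assessed.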 Raw values are not corrected between plates. Unmarked entries are inactive.

gene,migration robust z-score,migration class with cell-count check,migration relative to mock,"nuclei per well, duplicate mean"
SPATA33 (spermatogenesis associated 33),-1.69,migration z between -2 and 2; enough cells,0.44,4162
NUCB2 (nucleobindin 2),-0.64,migration z between -2 and 2; enough cells,0.72,3904
FOXB2 (forkhead box B2),-1.25,migration z between -2 and 2; enough cells,0.56,6725
AP3M2 (adaptor related protein complex 3 subunit mu 2),-2.27 (active),migration z below -2; enough cells,0.3,4260
"NFE2 (nuclear factor, erythroid 2)",-0.28,migration z between -2 and 2; enough cells,0.75,5573
RBL1 (RB transcriptional corepressor like 1),0.57,migration z between -2 and 2; enough cells,0.92,5048
ZNF423 (zinc finger protein 423),-0.29,migration z between -2 and 2; enough cells,0.75,5344
GABRB3 (gamma-aminobutyric acid type A receptor subunit beta3),0.57,migration z between -2 and 2; enough cells,0.92,4394
ETFDH (electron transfer flavoprotein dehydrogenase),0.2,migration z between -2 and 2; enough cells,0.84,5590
MORF4L2 (mortality factor 4 like 2),0.55,migration z between -2 and 2; enough cells,1.02,5325
CD82 (CD82 molecule),0.38,migration z between -2 and 2; enough cells,0.99,6560
PCNP (PEST proteolytic signal containing nuclear protein),1.35,migration z between -2 and 2; enough cells,1.23,6011
ADCY2 (adenylate cyclase 2),0.06,migration z between -2 and 2; enough cells,0.82,6142
C9orf43 (chromosome 9 open reading frame 43),0.99,migration z between -2 and 2; enough cells,1.14,7277
TRIM36 (tripartite motif containing 36),1.01,migration z between -2 and 2; enough cells,1,6397
DEPP1 (DEPP autophagy regulator 1),-1.18,migration z between -2 and 2; enough cells,0.57,6396
TNF (tumor necrosis factor),-1.4,migration z between -2 and 2; enough cells,0.54,3746
CMPK1 (cytidine/uridine monophosphate kinase 1),0.72,migration z between -2 and 2; enough cells,0.94,6666
RNF14 (ring finger protein 14),1.3,migration z between -2 and 2; enough cells,1.06,6442
KLHDC4 (kelch domain containing 4),-2.67 (active),migration z below -2; enough cells,0.18,6947
PHAF1 (phagophore assembly factor 1),-0.25,migration z between -2 and 2; enough cells,0.82,5932
PPP3CA (protein phosphatase 3 catalytic subunit alpha),0.6,migration z between -2 and 2; enough cells,0.92,6642
SHISAL2A (shisa like 2A),-0.9,migration z between -2 and 2; enough cells,0.65,4876
AGFG1 (ArfGAP with FG repeats 1),-1.24,migration z between -2 and 2; enough cells,0.56,3781
CA5B (carbonic anhydrase 5B),-0.6,migration z between -2 and 2; enough cells,0.69,4998
RTL10 (retrotransposon Gag like 10),-4.39,under 3300 nuclei; migration not judged,-0.26,2342
GARIN5A (golgi associated RAB2 interactor 5A),1.75,migration z between -2 and 2; enough cells,1.34,8142
ERGIC3 (ERGIC and golgi 3),-2.1 (active),migration z below -2; enough cells,0.35,5814
FAR2 (fatty acyl-CoA reductase 2),0.88,migration z between -2 and 2; enough cells,1.12,6137
WDR90 (WD repeat domain 90),-0.64,migration z between -2 and 2; enough cells,0.72,5844
GTPBP1 (GTP binding protein 1),-0.26,migration z between -2 and 2; enough cells,0.76,5517
TNFRSF6B (TNF receptor superfamily member 6b),1.01,migration z between -2 and 2; enough cells,1.15,5594
"ACAP1 (ArfGAP with coiled-coil, ankyrin repeat and PH domains 1)",0.61,migration z between -2 and 2; enough cells,1.04,6112
CLNS1A (chloride nucleotide-sensitive channel 1A),-0.68,migration z between -2 and 2; enough cells,0.68,5658
ZNF566 (zinc finger protein 566),0.4,migration z between -2 and 2; enough cells,0.99,6118
CLIP2 (CAP-Gly domain containing linker protein 2),-2.57 (active),migration z below -2; enough cells,0.31,3930
HTATIP2 (HIV-1 Tat interactive protein 2),-0.05,migration z between -2 and 2; enough cells,0.8,5767
PPP1R16A (protein phosphatase 1 regulatory subunit 16A),-0.75,migration z between -2 and 2; enough cells,0.69,5996
"PCDHGA4 (protocadherin gamma subfamily A, 4)",-0.09,migration z between -2 and 2; enough cells,0.86,5780
DLG1 (discs large MAGUK scaffold protein 1),-0.16,migration z between -2 and 2; enough cells,0.78,6600
EID1 (EP300 interacting inhibitor of differentiation 1),-1.72,migration z between -2 and 2; enough cells,0.44,5452
NECAB3 (N-terminal EF-hand calcium binding protein 3),0.44,migration z between -2 and 2; enough cells,1,6829
AREL1 (apoptosis resistant E3 ubiquitin protein ligase 1),0.21,migration z between -2 and 2; enough cells,0.84,4143
EFTUD2 (elongation factor Tu GTP binding domain containing 2),-1.69,migration z between -2 and 2; enough cells,0.48,4984
BUB1 (BUB1 mitotic checkpoint serine/threonine kinase),-0.16,migration z between -2 and 2; enough cells,0.77,4766
XAF1 (XIAP associated factor 1),1.41,migration z between -2 and 2; enough cells,1.25,7362
HAPLN3 (hyaluronan and proteoglycan link protein 3),-0.16,migration z between -2 and 2; enough cells,0.84,5894
ELP1 (elongator acetyltransferase complex subunit 1),0.24,migration z between -2 and 2; enough cells,0.85,5536
IL6R (interleukin 6 receptor),-1.76,under 3300 nuclei; migration not judged,0.46,3270
TM4SF19 (transmembrane 4 L six family member 19),-0.72,migration z between -2 and 2; enough cells,0.7,6501
RPGRIP1 (RPGR interacting protein 1),-0.18,under 3300 nuclei; migration not judged,0.84,3120
STOX2 (storkhead box 2),2.96 (active),migration z above 2; enough cells,1.65,5752
KLF10 (KLF transcription factor 10),0.05,migration z between -2 and 2; enough cells,0.82,6472
AHRR (aryl hydrocarbon receptor repressor),1.24,migration z between -2 and 2; enough cells,1.21,5744
LILRA1 (leukocyte immunoglobulin like receptor A1),-0.17,migration z between -2 and 2; enough cells,0.84,4482
ARHGAP33 (Rho GTPase activating protein 33),0.56,migration z between -2 and 2; enough cells,1.03,5470
RTP3 (receptor transporter protein 3),-0.82,migration z between -2 and 2; enough cells,0.67,5586
